{"source": "PubChem BioAssay AID493014", "about": "(National Center for Advancing Translational Sciences (NCATS), 2011)", "note": "Hit rate of the full screen: of about 340,000 compounds, about 170 (0.05%) were called active. The inconclusive results got no clear call from the source; some entries with a clear call stand among them for comparison. Calls come from the whole dose curve; as a rule, active = well fitted inhibition curve with a large enough effect in the signal ratio, with a control signal flat (not every such curve was filed as active); inconclusive = small, poorly fitted or top-dose-only effect, or effect the other way, or a change in a side signal; inactive = flat fitted curve, though single readings scatter; the % refers to the signal ratio. Potencies beside an inconclusive call are fits to weak or partial responses and may not hold up. Potency is the fitted concentration of half-maximal effect."}
{"experiment": "qHTS Assay to Find Inhibitors of Chronic Active B-Cell Receptor Signaling;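 for activity change, negative = inhibition: plate controls were basal doxycycline-induced cells for no effect and cells given 10 µM MG132 for full effect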", "settings": "ABC-DLBCL IkBa-CBG/CBR reporter, luminescence ratio (green luciferase fused to IkBa over red control in TMD8 lymphoma cells), 4 h; activity change, negative = inhibition: at 46.1 µM (top of the series)", "outline": "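Concentration-response series (up to 46 uM) were applied to TMD8 dual-reporter cells for 4 h at 37C with doxycycline. Green/red ratio, after filter-overlap correction, defined %Activity; red signal alone was normalised to basal cells and zero luminescence.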"}
{"compound": "COc1cccc(Nc2nnc(Cc3cccnc3)c3ccccc23)c1", "Potency": "inconclusive: 17.8 µM [falling, partial curve, poor fit]"}
{"compound": "Cn1c(=O)c(-c2ccccc2N)nc2ccccc21", "activity change, negative = inhibition": "inconclusive: 9.11%"}
{"compound": "Cc1ccc(S(=O)(=O)N2C=CC(C(F)(F)F)=NCC2)cc1", "activity change, negative = inhibition": "inconclusive: 1.17%"}
{"compound": "COc1ccc(NCc2nnc(SCC(=O)NCc3ccccc3)n2-c2ccccc2OC)cc1", "Potency": "inconclusive: 20.6 µM [falling, partial curve, poor fit]"}
{"compound": "COc1ccccc1Nc1nc2ccc(C)cc2n2cnnc12", "activity change, negative = inhibition": "inconclusive: 0.388%"}
{"compound": "COC(=O)CNC(c1ccccc1)c1cc(C)ccc1NC(=O)c1cccc(Cl)c1", "note": "(configuration not stated)", "activity change, negative = inhibition": "inconclusive: 2.19%"}
{"compound": "CCCn1c(O)c(/C=C2\\C=NN=C2c2ccccc2)sc1=S", "activity change, negative = inhibition": "inconclusive: 6.05%"}
{"compound": "CCN1CCN(c2ccc(S(=O)(=O)N3CCOCC3)cc2NC(=O)CC(C)C)CC1", "activity change, negative = inhibition": "inactive"}
{"compound": "O=C(CSc1ccccc1)Nc1ccc2c(c1)OCCO2", "activity change, negative = inhibition": "inconclusive: -12.1%"}
{"compound": "Cc1ccc(C(=O)Nc2cccc(C(=O)O)c2)cc1", "Potency": "inconclusive: 6.51 µM [rising, partial curve]"}
{"compound": "CCCOc1ccccc1C1CC(=O)Nc2cc3c(cc21)OCCO3", "note": "(configuration not stated)", "Potency": "inconclusive: 13 µM [falling, partial curve]"}
{"compound": "COc1cccc(OC)c1C(=O)Nc1nc2ccc([N+](=O)[O-])cc2s1", "activity change, negative = inhibition": "inconclusive: 3.93%"}
{"compound": "Cn1c(SCC#N)nc2ccccc2c1=O", "activity change, negative = inhibition": "inactive"}
{"compound": "O=C(Nc1cccnc1)c1cnn2cccnc12", "activity change, negative = inhibition": "inconclusive: 0.959%"}
{"compound": "Cc1ccccc1C(=O)NNC(=S)NC(=O)c1ccc(Cl)cc1Cl", "Potency": "inconclusive: 25.9 µM [falling, partial curve]"}
{"compound": "COc1ccccc1CC(=O)Nc1ccc(S(=O)(=O)N2CC(C)CC(C)C2)cc1", "note": "(configuration not stated)", "activity change, negative = inhibition": "inconclusive: 0.883%"}
{"compound": "CCOC(=O)c1ccc(Nc2nc(C(=O)OCC)nc3ccccc23)cc1", "activity change, negative = inhibition": "inconclusive: 27.1%"}
{"compound": "Cn1ccnc1Sc1nc2ccccc2nc1NS(=O)(=O)c1ccccc1", "Potency": "inconclusive: 28.2 µM [falling, single point]"}
{"compound": "CCC(=O)Nc1cccc(-n2nnnc2SCC(=O)c2ccc(C)c(C)c2)c1", "activity change, negative = inhibition": "inconclusive: 6.48%"}
{"compound": "O=C(Cn1cnc2ccccc2c1=O)NCC(=O)N1CCOCC1", "activity change, negative = inhibition": "inconclusive: 16.7%"}
{"compound": "O=C(CNS(=O)(=O)c1ccccc1)NCC(=O)OCc1ccc(C(=O)c2ccccc2)cc1", "activity change, negative = inhibition": "inconclusive: 1.94%"}
{"compound": "Cc1ccc(C)c(CN2C(=O)c3ccccc3S(=O)(=O)c3ccc(C(=O)N4CCN(C)CC4)cc32)c1", "activity change, negative = inhibition": "inconclusive: -12.8%"}
{"compound": "COc1ccc(OCCSc2ncn[nH]2)cc1", "Potency": "inconclusive: 17.8 µM [falling, single point]"}
{"compound": "Cc1ccc(-n2ncc3c(N4CCC(C)CC4)ncnc32)cc1C", "activity change, negative = inhibition": "inconclusive: 7.93%"}
{"compound": "O=c1cc(N2CCCCC2)c(-c2ccccc2)nn1Cc1ccc(Cl)cc1Cl", "activity change, negative = inhibition": "inconclusive: 30%"}
{"compound": "CCCc1nn(C)c(C(=O)Nc2cccc3ccccc23)c1Cl", "Potency": "inconclusive: 23.1 µM [falling, single point]"}
{"compound": "N#CC1=C(N)Nc2nc3ccccc3n2C1c1ccc(F)cc1", "note": "(configuration not stated)", "Potency": "inconclusive: 29.1 µM [falling, single point]"}
{"compound": "CC(C)(C)c1ccc(-c2noc(-c3ccno3)n2)cc1", "activity change, negative = inhibition": "inconclusive: 14.4%"}
{"compound": "CCOc1ccccc1NC(=O)CSc1nnc(Cc2cccn2C)n1-c1ccc(F)cc1", "activity change, negative = inhibition": "inconclusive: -3.29%"}
{"compound": "CCOc1cc(/C=C2\\SC(=Nc3ccc(F)cc3)N(c3ccc(F)cc3)C2=O)ccc1OCC(=O)O", "activity change, negative = inhibition": "inconclusive: -23.3%"}
{"compound": "CCCCC(=O)Nc1cccc(NC(=O)c2ccc(Br)o2)c1", "Potency": "inconclusive: 0.58 µM [falling, partial curve, poor fit]"}
{"compound": "O=C(OCc1ccco1)c1ccc(S(=O)(=O)N2CCCCC2)cc1", "activity change, negative = inhibition": "inconclusive: 10.3%"}
{"compound": "COc1cccc(-c2ccc3ncnc(NCc4cc(C)cs4)c3c2)c1", "activity change, negative = inhibition": "inconclusive: -29.2%"}
{"compound": "Cc1cccc(-c2nc3ccccc3c(=O)n2NC(=O)c2cccs2)c1", "activity change, negative = inhibition": "inconclusive: 8.16%"}
{"compound": "CCOC(=O)C1=C(O)CCn2c1nc1ccccc12", "Potency": "inconclusive: 2.59 µM [falling, full curve]"}
{"compound": "Cc1ccc(Cl)cc1N1CCN(C(=S)NCCc2ccccc2)CC1", "activity change, negative = inhibition": "inconclusive: -13.6%"}
{"compound": "COc1ccc(-c2sc(Nc3ccccc3)n[n+]2-c2ccc(F)cc2)c(C)c1C", "activity change, negative = inhibition": "inconclusive: -5.67%"}
{"compound": "Cc1nc2c(C(=O)N3CCN(C)CC3)cnn2c(C)c1Cc1ccc(Cl)cc1", "activity change, negative = inhibition": "inactive"}
{"compound": "COc1ccc(-n2nc3c(c2NC(=O)c2c(F)cccc2Cl)CS(=O)C3)cc1", "note": "(configuration not stated)", "activity change, negative = inhibition": "inconclusive: 6.91%"}
{"compound": "CC(C)CCNC(=O)NC(=O)COC(=O)CNC(=O)C1CCCCC1", "activity change, negative = inhibition": "inactive"}
{"compound": "COc1cc(CN2CCNC(=O)C2CC(=O)NCCC2=CCCCC2)cc(OC)c1", "note": "(configuration not stated)", "activity change, negative = inhibition": "inactive"}
{"compound": "Cc1c(CCNS(=O)(=O)c2ccccc2)sc2nc(-c3ccc(Cl)cc3)nn12", "activity change, negative = inhibition": "inconclusive: -1.2%"}
{"compound": "CN1CCN(c2ccc(NC(=O)c3ccc4c(c3)OCCO4)cc2Cl)CC1", "activity change, negative = inhibition": "inconclusive: -21.4%"}
{"compound": "O=C(N/N=C/c1ccoc1)c1ccccc1", "Potency": "inconclusive: 11.2 µM [falling, partial curve]"}
{"compound": "CC1CCC2(CC1)NC(=O)N(CC(=O)c1cn(CCC#N)c3ccccc13)C2=O", "note": "(configuration not stated)", "activity change, negative = inhibition": "inconclusive: -21.3%"}
{"compound": "COc1ccc(CNC(=O)C2=CC(c3ccc(OC)cc3)=NS(=O)(=O)N2C)cc1", "activity change, negative = inhibition": "inactive"}
{"compound": "COc1ccc(S(=O)(=O)N(C(=O)c2ccco2)c2cc3sc(=O)oc3c3ccccc23)cc1", "Potency": "inconclusive: 29.1 µM [falling, single point]"}
{"compound": "COc1ccc(NC(=O)Nc2cccc(C)n2)c(OC)c1", "activity change, negative = inhibition": "inconclusive: 3.16%"}
{"compound": "N#C/C(=C\\c1ccc(OCc2ccc(C(=O)O)cc2)cc1)C(=O)N1CCOCC1", "Potency": "inconclusive: 16.4 µM [falling, partial curve]"}
{"compound": "COc1ccc(-c2nc(CSCC(=O)NCc3ccco3)c(C)o2)cc1", "activity change, negative = inhibition": "inconclusive: 11.4%"}
{"compound": "COC(=O)c1ccc(C)c(NS(=O)(=O)c2ccc(C)c([N+](=O)[O-])c2)c1", "activity change, negative = inhibition": "inactive"}
{"compound": "O=C1CN(C(=O)COC(=O)c2ccc(Cl)cc2)c2ccccc2N1", "activity change, negative = inhibition": "inconclusive: 11.3%"}
{"compound": "COCC1CCN(C(=O)C2CCN(c3nc(-c4ccccc4)nc4c3CCC4)CC2)C1", "note": "(configuration not stated)", "activity change, negative = inhibition": "inconclusive: -9.31%"}
{"compound": "Cc1nn(CC(=O)N2CCC(C)CC2)c(=O)c2nn(-c3ccccc3)c(C)c12", "activity change, negative = inhibition": "inactive"}
{"compound": "CCC1(CC)Cc2ccccc2C(C2=C(O)CC(C)(C)CC2=O)=N1", "activity change, negative = inhibition": "inconclusive: 4.47%"}
{"compound": "O=C(NCCn1cc(SCC(=O)N2CCOCC2)c2ccccc21)c1ccccc1", "activity change, negative = inhibition": "inactive"}
{"compound": "CCCOc1ccc(C(=O)N(Cc2cccs2)C2CCS(=O)(=O)C2)cc1", "note": "(configuration not stated)", "activity change, negative = inhibition": "inactive"}
{"compound": "CC(=O)Nc1cccc(C(=O)NC2CCCc3c2cnn3-c2cc(C)cc(C)c2)c1", "note": "(configuration not stated)", "activity change, negative = inhibition": "inactive"}
{"compound": "COCCn1nc2cc(C(=O)NCC34CC5CC(CC(C5)C3)C4)ccc2c1OC", "activity change, negative = inhibition": "inactive"}
{"compound": "Cc1cccc(NC(=O)NC(C)CCc2ccccc2)c1", "note": "(configuration not stated)", "activity change, negative = inhibition": "inconclusive: 8.63%"}
{"compound": "CC(C)n1cc(NC(=O)c2cc(-c3ccccc3)on2)cn1", "Potency": "inconclusive: 29.1 µM [falling, single point]"}
{"compound": "O=C(CCc1ccccc1)Nc1ccc2c(c1)OCCO2", "Potency": "inconclusive: 22.4 µM [falling, single point]"}
{"compound": "Cc1ccc(OCC(=O)OC(C)CN2CCCCC2)cc1", "note": "(configuration not stated)", "activity change, negative = inhibition": "inactive"}
{"compound": "NC(=O)COc1ccc(C(=O)/C=C2/C(=O)Nc3ccccc32)cc1", "activity change, negative = inhibition": "inconclusive: 4.58%"}
{"compound": "C(=Nc1ccc(N2CCOCC2)cc1)c1c[nH]c2ccccc12", "activity change, negative = inhibition": "inconclusive: 3.42%"}
{"compound": "CCc1ccc(OCCOC(=O)Nc2ccccc2)cc1", "activity change, negative = inhibition": "inconclusive: 3.22%"}
{"compound": "Nc1ccc(SC(F)(F)F)cc1", "Potency": "inconclusive: 3.16 µM [falling, partial curve, poor fit]"}
{"compound": "O=C(Nc1ccc(F)c([N+](=O)[O-])c1)C(=O)c1c(O)[nH]c2ccccc12", "Potency": "inconclusive: 1.26 µM [falling, full curve]"}
{"compound": "C/C(Cn1cnc([N+](=O)[O-])n1)=N\\NC(=O)c1cccnc1", "Potency": "inconclusive: 32.6 µM [falling, partial curve, poor fit]"}
{"compound": "O=C(Nc1ccccn1)c1ccc(Br)c(S(=O)(=O)N2CCCCC2)c1", "activity change, negative = inhibition": "inactive"}
{"compound": "COc1ccc(NCc2nc3ccccc3n2CCOc2ccc(C)cc2)cc1", "Potency": "inconclusive: 5.8 µM [falling, partial curve]"}
{"compound": "COc1ccc(C(=O)/C=C/C(=O)N(Cc2ccc3c(c2)OCO3)C(C(=O)NC2CCCCC2)c2ccncc2)c(O)c1", "note": "(configuration not stated)", "activity change, negative = inhibition": "inconclusive: -7.1%"}
{"compound": "O=C(NN1C(=O)c2ccc3c4c(ccc(c24)C1=O)CC3)c1ccc(Br)cc1", "activity change, negative = inhibition": "inactive"}
{"compound": "Cc1ccccc1SCC(=O)Nc1cccc(C#N)c1", "activity change, negative = inhibition": "inconclusive: 10.7%"}
{"compound": "CNc1nc(-c2cccs2)cc(C(F)(F)F)c1C#N", "activity change, negative = inhibition": "inactive"}
{"compound": "CCOc1cccc(CNCCO)c1OCc1ccc(Cl)cc1Cl", "Potency": "inconclusive: 29.1 µM [falling, single point]"}
{"compound": "CCCCc1nnc(NC(=O)C2=COCCO2)s1", "Potency": "inconclusive: 35.5 µM [falling, single point]"}
{"compound": "CCOC(=O)CCCn1ncn2c(cc3occc32)c1=O", "Potency": "inconclusive: 20.6 µM [rising, partial curve, poor fit]"}
{"compound": "c1ccc(Nc2ccccc2)cc1", "activity change, negative = inhibition": "inconclusive: 8.62%"}
{"compound": "CN(C)C=Nc1ccc(Cl)c(Cl)c1", "activity change, negative = inhibition": "inactive"}
{"compound": "CCOC(=O)c1c(C)[nH]c(C)c1S(=O)(=O)N(C)CC(=O)Nc1cccc(C)n1", "activity change, negative = inhibition": "inactive"}
{"compound": "Cc1cccc(-n2ncc3c(N4CCCc5ccccc54)ncnc32)c1", "activity change, negative = inhibition": "inactive"}
